Experimental findings from the supplement of paper PMC8728848 are described below.

This is one part of the list.

Holding throughout (assay): glycan array binding signal (z-score within array); higher = stronger binding
Conditions in all cases: glycan notation: IUPAC condensed, linker removed

One assay deals with Gal(b1-4)Glc. A digest of the protocol: (§1)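 The Consortium for Functional Glycomics database supplied 3228 glycan arrays, of which those lacking an available protein sequence were dropped. The binding signal, a within-array Z-score, was averaged across arrays of the same protein sequence and across linkers. Negative scores can be read as non-binding.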
The next assay deals with Gal(b1-4)Glc6S. A digest of the protocol: as §1
Another assay has as its target Gal(b1-4)GlcNAc. The method, boiled down:
as §1

The target in assay [1] is Gal(b1-4)GlcNAc(a1-6)Gal(b1-4)GlcNAc. A digest of the protocol:
as §1

For the next assay, the target named is Gal(b1-4)GlcNAc(b1-2)Man. A digest of the protocol: as §1
For assay [2], the target named is Gal(b1-4)GlcNAc(b1-2)Man(a1-3)Man(b1-4)GlcNAc(b1-4)GlcNAc. The method, boiled down:
as §1

The target in assay [3] is Gal(b1-4)GlcNAc(b1-2)Man(a1-3)[Gal(b1-4)GlcNAc(b1-2)Man(a1-6)]Man(b1-4)GlcNAc(b1-4)GlcNAc. The method, boiled down:
as §1

Assay [4] concerns the target Gal(b1-4)GlcNAc(b1-2)Man(a1-3)[Gal(b1-4)GlcNAc(b1-2)Man(a1-6)]Man(b1-4)GlcNAc(b1-4)[Fuc(a1-6)]GlcNAc. A digest of the protocol:
as §1

For assay [5], the target named is Gal(b1-4)GlcNAc(b1-2)Man(a1-3)[Gal(b1-4)GlcNAc(b1-2)Man(a1-6)][Gal(b1-4)GlcNAc(b1-4)]Man(b1-4)GlcNAc(b1-4)[Fuc(a1-6)]GlcNAc. A digest of the protocol:
as §1

Assay [6] deals with Gal(b1-4)GlcNAc(b1-2)Man(a1-3)[Gal(b1-4)GlcNAc(b1-2)Man(a1-6)][GlcNAc(b1-4)]Man(b1-4)GlcNAc(b1-4)[Fuc(a1-6)]GlcNAc. The method, boiled down:
as §1

In assay [7] the target is Gal(b1-4)GlcNAc(b1-2)Man(a1-3)[GlcNAc(b1-2)Man(a1-6)]Man(b1-4)GlcNAc(b1-4)GlcNAc. A digest of the protocol: as §1
For assay [8], the target named is Gal(b1-4)GlcNAc(b1-2)Man(a1-3)[GlcNAc(b1-4)][Gal(b1-4)GlcNAc(b1-2)Man(a1-6)]Man(b1-4)GlcNAc(b1-4)GlcNAc. A digest of the protocol:
as §1

Assay [9] has as its target Gal(b1-4)GlcNAc(b1-2)Man(a1-3)[Man(a1-6)]Man(b1-4)GlcNAc(b1-4)GlcNAc. A digest of the protocol: as §1
Assay [10] has as its target Gal(b1-4)GlcNAc(b1-2)Man(a1-6)Man(b1-4)GlcNAc(b1-4)GlcNAc. The method, boiled down:
as §1

For assay [11], the target named is Gal(b1-4)GlcNAc(b1-2)Man(a1-6)[GlcNAc(b1-2)Man(a1-3)]Man(b1-4)GlcNAc(b1-4)GlcNAc. A digest of the protocol:
as §1

Assay [12] deals with Gal(b1-4)GlcNAc(b1-2)Man(a1-6)[Man(a1-3)]Man(b1-4)GlcNAc(b1-4)GlcNAc. The method, boiled down: as §1
In assay [13] the target is Gal(b1-4)GlcNAc(b1-2)[Gal(b1-4)GlcNAc(b1-4)]Man(a1-3)[Gal(b1-4)GlcNAc(b1-2)Man(a1-6)]Man(b1-4)GlcNAc(b1-4)GlcNAc. The method, boiled down: as §1
The target of assay [14] is Gal(b1-4)GlcNAc(b1-2)[Gal(b1-4)GlcNAc(b1-4)]Man(a1-3)[Gal(b1-4)GlcNAc(b1-2)[Gal(b1-4)GlcNAc(b1-6)]Man(a1-6)]Man(b1-4)GlcNAc(b1-4)GlcNAc. A digest of the protocol:
as §1

Assay [15] concerns the target Gal(b1-4)GlcNAc(b1-2)[Gal(b1-4)GlcNAc(b1-4)]Man(a1-3)[GlcNAc(b1-4)][Gal(b1-4)GlcNAc(b1-2)Man(a1-6)]Man(b1-4)GlcNAc(b1-4)GlcNAc. The method, boiled down:
as §1

Assay [16] concerns the target Gal(b1-4)GlcNAc(b1-2)[Gal(b1-4)GlcNAc(b1-4)]Man(a1-3)[GlcNAc(b1-4)][Gal(b1-4)GlcNAc(b1-2)[Gal(b1-4)GlcNAc(b1-6)]Man(a1-6)]Man(b1-4)GlcNAc(b1-4)GlcNAc. The method, boiled down: as §1
Assay [17] has as its target Gal(b1-4)GlcNAc(b1-2)[Gal(b1-4)GlcNAc(b1-6)]Man(a1-6)[Gal(b1-4)GlcNAc(b1-2)Man(a1-3)]Man(b1-4)GlcNAc(b1-4)GlcNAc. A digest of the protocol:
as §1

The target of assay [18] is Gal(b1-4)GlcNAc(b1-2)[Gal(b1-4)GlcNAc(b1-6)]Man(a1-6)[Gal(b1-4)GlcNAc(b1-2)Man(a1-3)]Man(b1-4)GlcNAc(b1-4)[Fuc(a1-6)]GlcNAc. A digest of the protocol: as §1

B1: SspB A3vp1 (Streptococcus gordonii), Q54186 (protein)
chain: MTNEADYQAKLAAYQTELARVQKANADAKATYEKAVEDNKAKNAAIKAENEEIKQRNAVAKTDYEAKLAKYEADLAKYKKEFAAYTAALAEAESKKKQDGYLSEPRSQSLNFKSEPNAIRTIDSSVHQYGQQELDALVKSWGISPTNPDRKKSRAYSYFNAINSNNTYAKLVLEKDKPVDVTYTGLKNSSFNGKKISKVVYTYTLKETGFNDGTKMTMFASSDPTVTAWYNDYFTSTNINVKVKFYDEEGQLMNLTGGLVNFSSLNRGNGSGAIDKDAIESVRNFNGRYIPISGSSIKIHENNSAYADSSNAEKSLGARWNTSEWDTTSSPNNWYGAIVGEITQSEISFNMASSKSGNIWFAFNSNINAIGVPTKPVAPTAPTQPMYETEKPLEPAPVAPSYENEPTPPVKTPDQPEPSKPAAALEHHHHHH
Turning to B1, the “glycan array binding signal (z-score)” value with Gal(b1-4)Glc was 0.149; with Gal(b1-4)Glc6S, 1.33; with Gal(b1-4)GlcNAc, -0.53; in assay [1] it was -0.728; with Gal(b1-4)GlcNAc(b1-2)Man, 0.562; in assay [2] it was -0.334. In addition, the “glycan array binding signal (z-score)” value was -0.969 in assay [3]; 0.515 in [4]; 3.03 in assay [5]; -0.295 in [6]; -0.379 in assay [7]; -0.128 in assay [8]. In addition, the “glycan array binding signal (z-score)” value is 1.2 in assay [9]; -0.26 in [10]; -0.156 in assay [11]; 0.42 in assay [12]; -0.863 in [13]; 0.805 in assay [14]. Besides, the “glycan array binding signal (z-score)” value is -0.012 in [15], 1.91 in assay [16], 1.82 in [17] and 0.793 in assay [18].
